For 2 substances, binding results are on record in paper PMC7132798.

Protein sequences, listed by entry. Tags and fused reporters are not part of them.
UniProt Q6PB44: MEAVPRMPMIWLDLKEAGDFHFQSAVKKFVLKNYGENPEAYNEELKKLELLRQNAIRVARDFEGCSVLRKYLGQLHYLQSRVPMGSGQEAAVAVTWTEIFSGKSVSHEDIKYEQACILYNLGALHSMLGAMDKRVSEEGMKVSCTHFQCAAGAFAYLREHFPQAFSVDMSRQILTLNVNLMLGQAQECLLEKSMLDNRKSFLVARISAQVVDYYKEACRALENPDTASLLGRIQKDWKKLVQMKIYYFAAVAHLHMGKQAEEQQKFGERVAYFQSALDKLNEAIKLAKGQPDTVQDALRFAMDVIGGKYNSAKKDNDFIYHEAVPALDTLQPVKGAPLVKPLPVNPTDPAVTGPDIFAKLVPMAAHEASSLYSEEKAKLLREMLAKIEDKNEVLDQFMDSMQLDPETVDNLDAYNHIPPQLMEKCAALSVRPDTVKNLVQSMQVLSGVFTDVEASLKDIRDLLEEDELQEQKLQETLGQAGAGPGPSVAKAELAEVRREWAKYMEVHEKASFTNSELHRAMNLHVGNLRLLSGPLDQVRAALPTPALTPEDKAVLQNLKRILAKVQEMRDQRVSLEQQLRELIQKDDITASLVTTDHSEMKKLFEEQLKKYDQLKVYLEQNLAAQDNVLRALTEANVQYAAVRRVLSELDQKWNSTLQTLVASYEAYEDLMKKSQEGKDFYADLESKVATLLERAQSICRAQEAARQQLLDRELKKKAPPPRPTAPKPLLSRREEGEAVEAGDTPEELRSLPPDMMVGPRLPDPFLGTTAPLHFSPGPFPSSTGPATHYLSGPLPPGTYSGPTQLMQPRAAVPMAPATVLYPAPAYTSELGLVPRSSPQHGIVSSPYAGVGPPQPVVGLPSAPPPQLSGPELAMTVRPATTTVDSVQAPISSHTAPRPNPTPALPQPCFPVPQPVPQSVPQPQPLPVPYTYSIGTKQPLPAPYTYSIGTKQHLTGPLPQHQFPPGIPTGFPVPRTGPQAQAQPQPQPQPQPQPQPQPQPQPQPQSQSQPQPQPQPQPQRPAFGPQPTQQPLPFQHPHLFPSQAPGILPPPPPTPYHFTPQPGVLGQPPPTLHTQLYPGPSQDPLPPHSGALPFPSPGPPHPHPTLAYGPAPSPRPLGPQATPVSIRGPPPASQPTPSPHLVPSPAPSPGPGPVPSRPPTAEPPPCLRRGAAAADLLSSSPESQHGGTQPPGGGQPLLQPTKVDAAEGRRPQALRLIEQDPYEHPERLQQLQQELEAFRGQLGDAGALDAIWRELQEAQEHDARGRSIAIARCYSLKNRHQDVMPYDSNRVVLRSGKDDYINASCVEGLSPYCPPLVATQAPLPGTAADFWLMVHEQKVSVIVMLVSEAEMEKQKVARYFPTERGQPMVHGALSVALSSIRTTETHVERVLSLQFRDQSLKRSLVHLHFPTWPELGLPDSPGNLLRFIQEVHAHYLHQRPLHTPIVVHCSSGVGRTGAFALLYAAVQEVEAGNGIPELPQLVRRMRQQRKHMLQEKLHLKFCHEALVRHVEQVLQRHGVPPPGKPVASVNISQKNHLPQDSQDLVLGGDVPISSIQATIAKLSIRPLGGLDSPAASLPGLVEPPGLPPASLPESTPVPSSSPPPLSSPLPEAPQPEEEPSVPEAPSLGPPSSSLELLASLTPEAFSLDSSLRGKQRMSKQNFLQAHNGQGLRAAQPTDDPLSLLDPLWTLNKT

In the assay the target is T1, Bicaudal-D1 (BICD1), endogenous (mouse (endogenous in N2A-FLAG-TrkB cells and ES-MNs)) (UniProt Q8BR07).
T1 sequence: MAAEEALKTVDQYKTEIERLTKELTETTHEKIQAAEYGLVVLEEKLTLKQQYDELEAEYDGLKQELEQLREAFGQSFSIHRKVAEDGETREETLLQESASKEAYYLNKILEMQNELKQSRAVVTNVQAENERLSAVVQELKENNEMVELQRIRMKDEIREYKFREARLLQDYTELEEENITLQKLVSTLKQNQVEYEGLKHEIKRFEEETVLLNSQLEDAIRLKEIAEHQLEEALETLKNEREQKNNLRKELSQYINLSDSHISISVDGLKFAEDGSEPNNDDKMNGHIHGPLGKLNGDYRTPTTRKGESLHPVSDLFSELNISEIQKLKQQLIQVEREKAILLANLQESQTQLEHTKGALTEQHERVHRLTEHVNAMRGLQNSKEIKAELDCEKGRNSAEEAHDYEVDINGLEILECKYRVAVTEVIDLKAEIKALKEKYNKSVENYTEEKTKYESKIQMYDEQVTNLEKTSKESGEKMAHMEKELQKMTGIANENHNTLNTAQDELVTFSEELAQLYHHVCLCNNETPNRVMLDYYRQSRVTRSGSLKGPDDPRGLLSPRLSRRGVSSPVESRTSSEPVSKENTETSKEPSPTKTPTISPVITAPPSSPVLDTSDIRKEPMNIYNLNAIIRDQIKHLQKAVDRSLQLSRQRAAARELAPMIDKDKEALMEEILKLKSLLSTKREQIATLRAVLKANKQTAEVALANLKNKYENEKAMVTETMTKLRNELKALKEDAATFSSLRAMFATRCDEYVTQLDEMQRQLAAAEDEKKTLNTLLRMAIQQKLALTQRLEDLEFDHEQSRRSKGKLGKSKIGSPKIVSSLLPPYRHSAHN
Put plainly: affinity purification with mass spectrometry; anti-BICD1 antibody on Protein-G Dynabeads; lysates of ES-MNs and N2A-FLAG-TrkB cells in 1% NP40 IP buffer, serum-starved 3 h, with or without 100 ng/ml BDNF for 15 min; LTQ-Orbitrap-XL.

Results are given in words; binding and its absence hold for the method and conditions named. In cells and extracts the contact can be indirect. Here binding means that the protein was enriched with, or labelled near, the bait; the list need not be complete. Where a sequence is shown, tags or fusion partners need not be part of it.

As to cytoplasmic dynein heavy chain, the binding result is “binds”. The value for “protein tyrosine phosphatase, non-receptor type 23 (PTPN23), endogenous (from UniProt Q6PB44 1-1692)” was “binds”.
